Values quoted from earlier work in US20260345458A1, “Pharmaceutical, Dermatological or Cosmetic Compounds and Compositions for Reducing Melanin Synthesis, Stimulating Type I Collagen Production, Skin Depigmentation and/or Promoting a Skin Anti-Aging Effect in an Individual or Animal, Uses and Methods” (Chemyunion Ltda, priority 2022, published 2026).
Not every detail of the peptide structures is certain; ends, links or a residue may be inferred. Where no end group is shown, it is not given here.

Tested on: melanin synthesis
Settings: as reported in prior patent documents; cited from earlier work

For QWVCS [GlnTrpValCysSer], the “activity on melanin synthesis / skin lightening” value is listed as “exhibits skin lightening activity”.
